# Assay results as given in the supplement of paper PMC3334620.
# Whole data set: some 33,000 sequences, median “E-score (-0.5 to 0.5)” near -0.015, cut for the highest 2% near 0.3. Some of the results follow.
# Molecular target: T1, Abf1 (UniProt P14164)
# T1 sequence: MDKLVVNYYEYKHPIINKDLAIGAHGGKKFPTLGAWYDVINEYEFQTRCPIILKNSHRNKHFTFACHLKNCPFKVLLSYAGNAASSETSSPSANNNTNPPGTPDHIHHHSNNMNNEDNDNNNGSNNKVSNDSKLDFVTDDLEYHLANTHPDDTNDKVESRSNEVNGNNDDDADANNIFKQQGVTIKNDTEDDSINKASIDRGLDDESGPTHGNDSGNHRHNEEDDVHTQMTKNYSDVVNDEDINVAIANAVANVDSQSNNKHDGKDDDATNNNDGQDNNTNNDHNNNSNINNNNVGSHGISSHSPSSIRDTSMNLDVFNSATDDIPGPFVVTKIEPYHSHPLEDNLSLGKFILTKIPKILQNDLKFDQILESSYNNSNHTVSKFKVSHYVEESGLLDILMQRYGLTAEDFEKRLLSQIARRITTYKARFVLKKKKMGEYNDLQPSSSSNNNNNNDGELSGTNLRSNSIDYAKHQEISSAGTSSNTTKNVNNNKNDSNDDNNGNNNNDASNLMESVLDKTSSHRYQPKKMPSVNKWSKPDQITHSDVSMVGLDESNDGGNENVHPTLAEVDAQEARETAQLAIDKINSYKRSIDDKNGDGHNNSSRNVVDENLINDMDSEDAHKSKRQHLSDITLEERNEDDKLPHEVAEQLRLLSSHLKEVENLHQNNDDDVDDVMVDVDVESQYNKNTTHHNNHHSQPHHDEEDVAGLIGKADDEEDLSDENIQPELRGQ
# Assay: PBM E-score (8-mer binding enrichment) (E-score (-0.5 to 0.5)); higher = stronger / more preferred TF binding
# Conditions: protein concentration: 200 nM; construct: GST-full length
# Method in brief: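 The E-score, a modified Wilcoxon-Mann-Whitney statistic, was computed by the Universal PBM Analysis Suite for every ungapped eight-base word pooled with its reverse complement. Scans behind it were normalised with masliner after bound GST-tagged yeast transcription factors were detected with fluorescent anti-GST. The proteins, at about 100-200 nM, had been applied to universal all-10-mer Agilent arrays made double-stranded by primer extension.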
row,Sequence,PBM E-score
1,ACAGTAAT,0.0618
2,GCTCGACC,-0.112
3,TAAAATAA,0.158
4,CGGACTTC,-0.174
5,CTGGTGCC,-0.224
6,AAATAACT,0.186
7,CATTAAGG,0.0862
8,AGCTATGG,-0.102
9,CGACACCG,-0.128
10,ACGCCCGT,0.0152
11,CGTTGAGC,0.0359
12,TGGACGAA,0.243
13,ATACCATA,0.154
14,CCCTGGTA,-0.209
15,GTCGACGA,0.26
16,TACGTCCA,0.0691
17,ACGGCGAA,0.343
18,ATCTGTAC,0.0718
19,CATGAAAC,-0.165
20,GGAGTGGA,-0.153
21,GAAAGGCA,0.0645
22,CAACCTAA,0.0971
23,ACTGTATA,0.112
24,CTAGCGTC,-0.0778
25,ATGAACGG,0.02

row,Sequence,PBM E-score
1,AGTGATCG,0.239
2,GTATAGAA,0.223
3,CAAAGAAC,-0.0472
4,ACCTCAAC,0.0396
5,CCATCAGA,-0.13
6,CTGACGTA,-0.0588
7,CTCGGTGA,0.135
8,CCCTCAAG,-0.192
9,AGGATCAC,0.153
10,ACAGCCCC,-0.255
11,CCCTGACC,-0.22
12,CACCACAG,-0.0808
13,ACCAAACA,0.239
14,ATGATAGA,0.103
15,CCTACAAG,-0.29
16,GAGAGATA,-0.0109
17,CGACTCTA,-0.0601
18,ACGCGATG,0.132
19,CCAGAAGA,-0.0896
20,CCTTTCAA,-0.0492
21,GCGCAGAC,-0.113
22,AAGGCTTC,-0.157
23,CTCCCGAC,-0.0582
24,CGGTTCAG,-0.231
25,GGGTGAGA,-0.136

row,Sequence,PBM E-score
1,CAGAAATG,-0.0221
2,ACTAAAAA,0.129
3,GCCTTTTA,0.0428
4,GATCTTCA,0.0137
5,AATTAAGA,0.0488
6,GAGACCAA,-0.0669
7,CAATGACA,0.214
8,CTACAGCA,-0.17
9,ACTAGTAC,0.0885
10,CTAGACAG,-0.158
11,CGTTCTAG,0.0852
12,ACTCCCAA,0.0267
13,CTCGAAAG,-0.00955
14,GCATTCAA,0.0305
15,GCTGTTGA,0.0654
16,CCCTAATA,-0.0658
17,CGATCACA,0.161
18,GAGACATA,0.0808
19,GTGTGCAA,-0.0108
20,ACGATGAG,0.185
21,CGGACGCA,-0.056
22,ATATTACG,0.253
23,CCACCCCA,-0.124
24,AATGGTAA,0.111
25,CAAACTGA,-0.108

# Two entries from above, with tabs:
row	Sequence	PBM E-score
6	GAGACCAA	-0.0669
20	ACGATGAG	0.185

# (listing goes on)

row,Sequence,PBM E-score
1,CGCCTGAG,-0.0541
2,GAAATAAA,0.083
3,ACACACCT,-0.0974
4,CGACCGCG,0.111
5,CATAAGTA,0.101
6,CATTAGAA,-0.048
7,ACTTACTC,-0.154
8,ACTATGAT,-0.0345
9,ACATTAGC,0.0113
10,GCACGGCC,0.0897
11,ATGGGACA,-0.0986
12,AATGATCG,0.232
13,ATTTATAG,-0.016
14,ACCACGAG,0.126
15,AGCTTGTC,-0.0838
16,CGCCTCGC,-0.0682
17,CGCCCGTA,0.109
18,GAGGCCAA,-0.163
19,AATTGAGA,-0.0624
20,CCGATTAC,-0.0467
21,CAGGACAG,0.0588
22,ATCAAATC,0.118
23,AAGAAACA,0.00526
24,TACCACTA,0.0408
25,GGGCACCC,-0.139

row,Sequence,PBM E-score
1,ACCAGTAT,0.0633
2,CGTTTCAA,0.164
3,ATTGGATA,0.0891
4,TGCTAACA,0.00773
5,AATATCGT,0.398
6,GTAGACCA,-0.0597
7,AAATTTCA,-0.0339
8,ACTGGGTA,-0.0366
9,ATCTTATG,0.0695
10,ACCTGGCA,-0.0183
11,CGGGAGGA,-0.157
12,AGGGCAGG,-0.231
13,AGAATACA,0.00391
14,GATGGCGA,0.0515
15,GACGGTAA,0.0732
16,AGACGTCG,0.0203
17,CACCTATA,-0.0609
18,ATCGGCCG,-0.0978
19,ACAAAGGA,-0.0678
20,CTCCAATA,-0.0156
21,CAATTAGG,-0.12
22,ACATTCGT,0.163
23,AGTATCGG,-0.0316
24,ATGATTAA,0.296
25,TCACACGA,0.297

row,Sequence,PBM E-score
1,ACAGACTG,-0.221
2,GAAGCGAA,0.0286
3,TACACTGA,0.0897
4,GCCCTGAC,-0.0565
5,CCCTCAAA,-0.0801
6,CACTGAGC,-0.14
7,GTGAGAAC,-0.0155
8,AGCAACCC,-0.17
9,AGGGATCA,0.0623
10,ATTAATTC,0.194
11,GTAAAGAC,0.0331
12,AACGGGGT,0.051
13,AAAGGACA,-0.0266
14,AGAAAACA,0.109
15,CGGAAACC,-0.219
16,ACAAATGC,0.101
17,GTCATGGA,-0.0337
18,TAGCCGCA,-0.163
19,AGGCCTAC,-0.00197
20,ATATCCTG,0.0704
21,CGGTTAAC,-0.269
22,AACAGATT,0.0405
23,CGGGTTTC,-0.129
24,AAGCCGTG,0.147
25,CGGTATAA,0.208

# Six records picked at random from those above, as already listed:
row,Sequence,PBM E-score
1,ACCAGTAT,0.0633
5,AATATCGT,0.398
14,GATGGCGA,0.0515
10,ACCTGGCA,-0.0183
3,GCCTTTTA,0.0428
1,ACAGTAAT,0.0618

# More results.

row,Sequence,PBM E-score
1,CATTGTGG,-0.167
2,ATTCATTA,0.118
3,TCCCAGCA,-0.0223
4,CATCGTTA,0.00302
5,GACCTCAC,0.096
6,AGACTGGC,-0.297
7,CTGTTGCA,0.0169
8,GCTATCTA,-0.0358
9,ACCTCTTC,-0.12
10,AAAACGCC,-0.0152
11,GAGGGCCA,-0.0366
12,CGTTAAGC,0.103
13,GGCTTACC,-0.23
14,CTTCACTC,-0.039
15,AAAACACT,0.0505
16,AGAACGTC,0.071
17,GATTCTCA,0.0984
18,CCAAGTAC,-0.0705
19,AACGAGAT,0.141
20,AGGCCCTC,-0.202
21,AGGCATCG,-0.0212
22,AGGGACGC,-0.22
23,ACCTGCGC,-0.0853
24,AAGCTGTC,0.00202
25,GAGTCTGC,-0.327

row,Sequence,PBM E-score
1,GAACGTAA,0.16
2,CCCTAACA,0.0314
3,GTACTGGA,0.0937
4,ACGTTGGA,0.142
5,AGTCCCGC,-0.141
6,CAGCCTTC,-0.199
7,ATGCAGGG,-0.188
8,AAAGCTAA,-0.0278
9,GGACCTGA,-0.15
10,AGGTCCGC,-0.17
11,CGATCGCA,0.0712
12,ACAAATAA,0.177
13,CGCTGGGC,-0.14
14,TACGCACA,0.0228
15,CAGTCGGG,0.0146
16,CCACTCGC,-0.198
17,ACGTCCTA,0.118
18,GAACGCAC,-0.0202
19,CAAAGACA,0.0294
20,ATCCGTTA,0.0368
21,AGTAATCA,-0.0447
22,AGGATGCA,-0.0536
23,CGACCGAC,-0.0557
24,TGGGCGAA,0.024
25,GAACCGGA,-0.121

row,Sequence,PBM E-score
1,TATTCGGA,0.0765
2,TCTCAGCA,-0.182
3,ATATCCGG,0.0227
4,CCTGGTTA,-0.0879
5,ACAAATTG,0.151
6,TGGCCACA,-0.0329
7,GTACGCGA,0.0966
8,GCTATCAC,0.211
9,ACGGCATA,0.207
10,ACCTTTTG,-0.00807
11,CTCCAGTC,-0.222
12,CGGAAACG,-0.0387
13,AGTGAGGG,-0.196
14,TCGAGCCA,-0.154
15,ATCCACTC,0.0417
16,ATTAGCGC,0.0369
17,ACCCGCCT,-0.188
18,AACAGTTG,-0.105
19,AAACGTAG,-0.0717
